{"sequences": {"note": "Amino acid sequences for entries named in this document (tags omitted).", "UniProt O75643": "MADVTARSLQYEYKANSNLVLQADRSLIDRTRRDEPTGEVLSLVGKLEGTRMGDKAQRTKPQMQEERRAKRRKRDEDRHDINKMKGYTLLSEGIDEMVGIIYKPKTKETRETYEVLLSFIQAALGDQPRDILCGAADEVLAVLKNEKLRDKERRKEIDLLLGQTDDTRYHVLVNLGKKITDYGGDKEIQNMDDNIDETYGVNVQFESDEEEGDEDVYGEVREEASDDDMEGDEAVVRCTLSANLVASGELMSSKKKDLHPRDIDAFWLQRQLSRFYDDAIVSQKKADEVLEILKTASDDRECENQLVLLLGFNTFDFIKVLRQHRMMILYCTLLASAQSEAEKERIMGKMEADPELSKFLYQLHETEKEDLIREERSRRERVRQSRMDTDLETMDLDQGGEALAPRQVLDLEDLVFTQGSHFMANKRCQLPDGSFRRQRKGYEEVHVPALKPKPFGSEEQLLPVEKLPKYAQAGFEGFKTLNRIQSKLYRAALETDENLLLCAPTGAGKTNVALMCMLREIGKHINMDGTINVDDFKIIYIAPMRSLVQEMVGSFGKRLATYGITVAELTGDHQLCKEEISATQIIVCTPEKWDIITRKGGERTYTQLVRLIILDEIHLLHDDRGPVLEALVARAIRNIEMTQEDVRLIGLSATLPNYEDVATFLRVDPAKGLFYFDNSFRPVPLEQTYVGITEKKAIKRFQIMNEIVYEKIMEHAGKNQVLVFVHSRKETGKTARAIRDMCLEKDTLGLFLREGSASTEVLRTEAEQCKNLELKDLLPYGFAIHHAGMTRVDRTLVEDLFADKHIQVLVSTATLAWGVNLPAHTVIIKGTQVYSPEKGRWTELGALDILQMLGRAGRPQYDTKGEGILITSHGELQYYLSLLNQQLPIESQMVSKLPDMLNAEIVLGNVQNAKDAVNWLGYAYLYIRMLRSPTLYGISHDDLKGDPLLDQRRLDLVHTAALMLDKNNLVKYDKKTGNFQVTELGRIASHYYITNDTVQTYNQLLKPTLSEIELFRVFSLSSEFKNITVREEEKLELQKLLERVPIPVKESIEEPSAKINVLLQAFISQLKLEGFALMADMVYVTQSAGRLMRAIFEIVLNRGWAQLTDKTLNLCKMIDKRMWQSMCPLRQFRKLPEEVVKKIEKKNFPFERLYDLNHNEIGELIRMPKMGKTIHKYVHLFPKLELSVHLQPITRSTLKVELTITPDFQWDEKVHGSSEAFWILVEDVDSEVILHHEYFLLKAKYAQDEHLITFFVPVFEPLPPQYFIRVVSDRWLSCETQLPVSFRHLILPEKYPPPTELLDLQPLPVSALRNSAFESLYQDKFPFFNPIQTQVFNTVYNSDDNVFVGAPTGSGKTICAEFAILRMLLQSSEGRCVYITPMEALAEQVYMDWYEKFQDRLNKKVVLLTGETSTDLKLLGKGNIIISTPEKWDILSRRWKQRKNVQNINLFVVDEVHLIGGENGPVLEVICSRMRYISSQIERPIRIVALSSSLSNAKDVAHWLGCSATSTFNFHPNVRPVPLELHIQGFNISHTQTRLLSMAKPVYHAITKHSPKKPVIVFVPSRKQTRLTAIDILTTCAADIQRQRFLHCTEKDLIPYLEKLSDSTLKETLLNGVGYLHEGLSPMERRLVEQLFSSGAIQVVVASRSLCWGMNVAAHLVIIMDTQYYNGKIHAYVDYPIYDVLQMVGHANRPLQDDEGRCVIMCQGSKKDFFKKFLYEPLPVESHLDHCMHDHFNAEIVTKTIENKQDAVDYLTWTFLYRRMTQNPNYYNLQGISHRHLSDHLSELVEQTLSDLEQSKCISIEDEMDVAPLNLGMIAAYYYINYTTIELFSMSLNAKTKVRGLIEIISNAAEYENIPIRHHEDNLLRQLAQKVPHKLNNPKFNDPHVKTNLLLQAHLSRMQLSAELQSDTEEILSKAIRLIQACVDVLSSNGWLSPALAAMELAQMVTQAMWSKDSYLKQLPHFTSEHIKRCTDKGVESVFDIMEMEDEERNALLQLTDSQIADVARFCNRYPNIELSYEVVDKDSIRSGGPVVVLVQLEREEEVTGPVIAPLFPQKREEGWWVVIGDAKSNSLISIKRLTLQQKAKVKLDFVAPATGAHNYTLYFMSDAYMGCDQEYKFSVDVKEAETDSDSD"}, "source": "paper PMC8877913", "molecules": {"B1": {"name": "hnRNPL (protein, UniProt P14866 1-589)", "chain": "MSRRLLPRAEKRRRRLEQRQQPDEQRRRSGAMVKMAAAGGGGGGGRYYGGGSEGGRAPKRLKTDNAGDQHGGGGGGGGGAGAAGGGGGGENYDDPHKTPASPVVHIRGLIDGVVEADLVEALQEFGPISYVVVMPKKRQALVEFEDVLGACNAVNYAADNQIYIAGHPAFVNYSTSQKISRPGDSDDSRSVNSVLLFTILNPIYSITTDVLYTICNPCGPVQRIVIFRKNGVQAMVEFDSVQSAQRAKASLNGADIYSGCCTLKIEYAKPTRLNVFKNDQDTWDYTNPNLSGQGDPGSNPNKRQRQPPLLGDHPAEYGGPHGGYHSHYHDEGYGPPPPHYEGRRMGPPVGGHRRGPSRYGPQYGHPPPPPPPPEYGPHADSPVLMVYGLDQSKMNCDRVFNVFCLYGNVEKVKFMKSKPGAAMVEMADGYAVDRAITHLNNNFMFGQKLNVCVSKQPAIMPGQSYGLEDGSCSYKDFSESRNNRFSTPEQAAKNRIQHPSNVLHFFNAPLEVTEENFFEICDELGVKRPSSVKVFSGKSERSSSGLLEWESKSDALETLGFLNHYQMKNPNGPYPYTLKLCFSTAQHAS"}, "B2": {"name": "NONO (non-POU domain-containing octamer-binding protein NONO/p54nrb) (protein, UniProt Q15233 1-471)", "chain": "MQSNKTFNLEKQNHTPRKHHQHHHQQQHHQQQQQQPPPPPIPANGQQASSQNEGLTIDLKNFRKPGEKTFTQRSRLFVGNLPPDITEEEMRKLFEKYGKAGEVFIHKDKGFGFIRLETRTLAEIAKVELDNMPLRGKQLRVRFACHSASLTVRNLPQYVSNELLEEAFSVFGQVERAVVIVDDRGRPSGKGIVEFSGKPAARKALDRCSEGSFLLTTFPRPVTVEPMDQLDDEEGLPEKLVIKNQQFHKEREQPPRFAQPGSFEYEYAMRWKALIEMEKQQQDQVDRNIKEAREKLEMEMEAARHEHQVMLMRQDLMRRQEELRRMEELHNQEVQKRKQLELRQEEERRRREEEMRRQQEEMMRRQQEGFKGTFPDAREQEIRMGQMAMGGAMGINNRGAMPPAPVPAGTPAPPGPATMMPDGTLGLTPPTTERFGQAATMEGIGAIGGTPPAFNRAAPGAEFAPNKRRRY"}}, "biological_target": "T1, His-Halo-tagged Rex (HTLV-1 Rex) (HTLV-1) (UniProt P0C206)", "T1 sequence": "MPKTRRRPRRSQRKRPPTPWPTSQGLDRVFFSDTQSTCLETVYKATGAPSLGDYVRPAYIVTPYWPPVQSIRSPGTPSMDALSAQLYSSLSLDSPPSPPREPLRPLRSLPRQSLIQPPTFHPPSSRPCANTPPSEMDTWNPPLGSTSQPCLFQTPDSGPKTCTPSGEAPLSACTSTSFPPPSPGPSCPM", "experiment": "affinity purification with mass spectrometry", "note": "Results are given in words; binding and its absence hold for the method and conditions named. Binding seen in cells or lysates may run through a third protein. Here binding means that the protein was enriched with, or labelled near, the bait; the list need not be complete. Sequences can lack the tags named with a protein."}
{"molecule": "snRNAP200 (from UniProt O75643 1-2136)", "values": [{"measurement": "binding", "value": "binds"}]}
{"molecule": "B1", "values": [{"measurement": "binding", "value": "binds"}]}
{"molecule": "B2", "values": [{"measurement": "binding", "value": "binds"}]}
